Reference: PubChem BioAssay AID651640 (Broad Institute, 2012)
The campaign covered roughly 350,000 compounds. About 6,000 (1.7%) were called active. Inconclusive results, whose numbers are uncertain, are shown with a selection of clear calls. Cut-off read from the data, not from the text of the source: active = CPE inhibition above about 20% (passing the limit was not always enough); inconclusive = no clear call, values can overlap the other calls; tested in BHK-21 cells. Some structures have more than one record in an assay (separate samples or runs), and their calls can disagree.

Assay: protection of cells from dengue 2 killing – plate reader, single concentration, primary screen (AID 651640);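 note: 0% = median of neutral control wells and 100% = median of positive control wells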
Conditions: DENV2-infected cells, cytopathic effect rescue, at 9.99 µM, hits give high values
With `Cc1cccc(-c2ccc([C@H]3[C@@H](CO)N4CCCCN(C(=O)NC(C)C)C[C@@H]34)cc2)c1` the CPE inhibition was inconclusive: 24.8%.
For `Cc1ccc(OCCC(=O)Nc2ccc(F)c(F)c2)cc1`, the CPE inhibition was inconclusive: 21.7%.
With `COc1ccc(CN(C(=O)c2ccco2)C2CCS(=O)(=O)C2)cc1` (stereo not drawn) the CPE inhibition was inconclusive: 21.2%.
With `COc1cccc(NC(=O)N2[C@@H]3CNC[C@H]2C3c2ccc(-c3ccccc3)cc2)c1` (stereo partly drawn) the CPE inhibition was active: 99.1%.
In the case of `Cc1noc(C)c1S(=O)(=O)N(C)C[C@@H]1Oc2ccc(NC(=O)Nc3ccc(C(F)(F)F)cc3)cc2CC(=O)N([C@@H](C)CO)C[C@H]1C`, the CPE inhibition is reported as inactive: -2.3%.
With `COc1ccc(C(=O)NC(=S)Nc2ccc(CN3CCCCC3)cc2)cc1Cl` the CPE inhibition was inactive: 1.56%.
For `C[C@@H]1CN([C@H](C)CO)C(=O)Cc2cc(NC(=O)Nc3ccc4c(c3)OCO4)ccc2O[C@H]1CN(C)Cc1ccc2c(c1)OCO2`, the CPE inhibition was inactive: -12%.
With `O=C(Nc1cc2c(cc1[N+](=O)[O-])OCCO2)c1cccnc1` the CPE inhibition was inactive: -10.8%.
In the case of `Cc1ccc(S(=O)(=O)N/N=C\c2cn(CC(N)=O)c3ccccc23)cc1C`, the CPE inhibition is reported as inactive: 0.984%.
With `O=C(c1cccc(F)c1)N1CC2(C1)[C@@H](c1ccccc1)[C@@H](CO)N2C(=O)C1CCCC1` the CPE inhibition was active: 77.6%.
For `CCCNC(=O)C[C@@H]1CC[C@@H]2[C@@H](COc3ccc(NC(=O)Nc4c(C)noc4C)cc3C(=O)N2C)O1`, the CPE inhibition was inactive: 14.6%.
In the case of `COc1ccc(NC(=O)c2nc3ccccc3s2)cc1`, the CPE inhibition is reported as inactive: 7.84%.
For `Cc1cc(N2C(=O)C3C4CC(C(Br)C4Br)C3C2=O)no1` (stereo not drawn), the CPE inhibition was inconclusive: 40.4%.
In the case of `Nn1cnc2c(ncn2C2OC(CO)C(O)C2O)c1=O` (stereo not drawn), the CPE inhibition is reported as inconclusive: 64.4%.
In the case of `COc1ccccc1NC(=O)Nc1cccc(C)n1`, the CPE inhibition is reported as inconclusive: 32.4%.
For `CCCC(=O)Nc1ccc2c(c1)OC[C@@H](C)N(Cc1nccs1)C[C@@H](C)[C@@H](OC)CN(C)C2=O`, the CPE inhibition was inactive: 13.5%.
In the case of `C[C@H](CO)N1C[C@H](C)[C@H](CN(C)S(=O)(=O)c2ccc(F)cc2)OCCCC[C@H](C)Oc2ccc(NC(=O)CCCN(C)C)cc2C1=O`, the CPE inhibition is reported as active: 33.6%.
For `FC(F)(F)c1cccc(Nc2cc(-c3ccccc3)nc3ncnn23)c1`, the CPE inhibition was inconclusive: 25.5%.
In the case of `Cc1ccc(S(=O)(=O)N2CCN(C(=O)COC(=O)c3ccccc3Cl)CC2)c(C)c1`, the CPE inhibition is reported as inactive: 1.36%.
In the case of `O=C(c1ccc2c(c1)OCO2)N1CC(=O)N2[C@H](CO)[C@@H](c3ccc(C#CCC4CCCC4)cc3)[C@H]2C1`, the CPE inhibition is reported as inactive: 1.39%.
For `O=C1/C(=C/C=C/c2ccco2)SC(=S)N1NS(=O)(=O)c1ccccc1`, the CPE inhibition was inactive: 4.11%.
In the case of `O=C(O)C(Cc1cc(Cl)ccc1Cl)Sc1nc2ccccc2[nH]1` (stereo not drawn), the CPE inhibition is reported as inconclusive: 31.3%.
With `CNC[C@H]1Oc2cc(C#CCN(C)C)ccc2S(=O)(=O)N([C@H](C)CO)C[C@H]1C` the CPE inhibition was inactive: -8.72%.
In the case of `COc1ccc(-c2csc(CCn3nc(C)cc3C)n2)cc1OC`, the CPE inhibition is reported as inactive: 17.9%.
With `C[C@@H]1CN([C@@H](C)CO)C(=O)c2cc(C#CCc3ccccc3)cnc2O[C@@H]1CN(C)C(=O)C1CC1` the CPE inhibition was inconclusive: 28.2%.
For `Cc1ccc(C)c(NS(=O)(=O)c2cc(C(=O)NCc3ccncc3)ccc2C)c1`, the CPE inhibition was active: 97.8%.
In the case of `COc1ccc(CC(=O)NCc2cccc(Cl)c2)cc1S(=O)(=O)N1CCOCC1`, the CPE inhibition is reported as inconclusive: 24%.
In the case of `CCOc1cccc(-c2c(C(=O)N/N=C/c3ccc(Br)cc3)nnn2-c2nonc2N)c1`, the CPE inhibition is reported as active: 47.5%.
For `O=C(NC[C@H]1CC[C@H]2[C@H](CN2Cc2cccc(Cl)c2)O1)C1CCC1`, the CPE inhibition was inactive: 4.27%.
For `O=S(=O)(c1cccs1)N1CCCCN2[C@H](CO)[C@H](c3ccc(-c4ccccc4)cc3)[C@@H]2C1`, the CPE inhibition was active: 22.6%.
With `CCCc1c(C(=O)Nc2ccc(OC)cc2)cnn1-c1ccccc1` the CPE inhibition was inconclusive: 47.8%.
In the case of `CN1C(=O)C(CC(=O)NCCc2ccccc2)N(NC(=O)c2cccc(F)c2)C1=S` (stereo not drawn), the CPE inhibition is reported as inconclusive: 23.2%.
For `O=C(CNC(=O)c1ccccc1F)NCCN1C(=O)S/C(=C\c2ccccc2Cl)C1=O`, the CPE inhibition was active: 81%.
In the case of `Cc1ccc(C(=O)N2c3ccccc3OCC2C)cc1` (stereo not drawn), the CPE inhibition is reported as inconclusive: 23.4%.
In the case of `CCCNC(=O)Nc1ccc2c(c1)C(=O)N(C)C[C@@H](OC)[C@H](C)CN(C(=O)C1CCOCC1)[C@H](C)CO2`, the CPE inhibition is reported as inactive: 0.332%.
With `C#Cc1ccc([C@@H]2C=C(C(=O)NCc3nc4ccccc4[nH]3)O[C@H](OCC)[C@H]2CCCO)cc1` the CPE inhibition was active: 22.2%.
In the case of `CN(C(=O)c1cccc(NC(=O)Cc2ccc(NC(=O)C3CCCN(C(=O)C4CCCCC4)C3)cc2)c1)C1CC1` (stereo not drawn), the CPE inhibition is reported as inconclusive: 137%.
In the case of `COc1ccc2oc(C(=O)OCC(=O)NC3CCCCC3)c(C)c2c1`, the CPE inhibition is reported as inconclusive: 31.6%.
In the case of `Cc1cn([C@H]2C[C@H](O)[C@@H](CNC(=O)[C@@H]3C[C@H](F)CN3)O2)c(=O)[nH]c1=O`, the CPE inhibition is reported as inconclusive: 42.6%.
With `N#Cc1ccc(-c2ccc([C@@H]3[C@@H](CO)N4C(=O)CN(C(=O)Cc5ccccc5)C[C@@H]34)cc2)cc1` the CPE inhibition was inconclusive: 24.5%.
For `O=C(Nc1ccc(F)cc1)N1CC(=O)N2[C@@H](CO)[C@@H](c3ccc(-c4ccc(F)cc4)cc3)[C@@H]2C1`, the CPE inhibition was inconclusive: 25.9%.
In the case of `C/C=C/c1ccc([C@H]2[C@H]3CN(S(=O)(=O)c4cccc(F)c4)CC(=O)N3[C@H]2CO)cc1`, the CPE inhibition is reported as active: 30.2%.
With `Cn1ccc2cc(-c3ccc4ncnc(NCc5cccs5)c4c3)ccc21` the CPE inhibition was inconclusive: 23.9%.
In the case of `Cc1cc(C(=O)Nc2ccc3c(c2)C(=O)N(C)[C@H]2CC[C@@H](CC(=O)N[C@@H](C)c4ccccc4)O[C@H]2CO3)no1`, the CPE inhibition is reported as active: 97.1%.
With `CCCCOc1ccc(C(=O)NCCOc2cccc(OC)c2)cc1` the CPE inhibition was active: 53.1%.
For `C[C@H]1CN([C@@H](C)CO)S(=O)(=O)c2ccc(-c3cccc(F)c3)cc2O[C@H]1CN(C)C(=O)Nc1cc(F)ccc1F`, the CPE inhibition was inactive: -1.39%.
With `COc1ccc(S(=O)(=O)N(C)C[C@H]2Oc3ccc(NC(=O)CCN4CCOCC4)cc3CC(=O)N([C@@H](C)CO)C[C@H]2C)cc1` the CPE inhibition was inactive: 1.8%.
For `C[C@@H]1CN([C@@H](C)CO)C(=O)c2cc(NC(=O)Cc3cn(C)c4ccccc34)ccc2O[C@H]1CN(C)C(=O)NC1CCCCC1`, the CPE inhibition was active: 23.5%.
For `Cc1ccc(S(=O)(=O)N[C@@H]2CC[C@@H](CC(=O)NCc3ccccc3F)O[C@H]2CO)cc1`, the CPE inhibition was inactive: 10.1%.
For `Cc1ccc(CSCCNC(=O)CN(c2ccccc2)S(C)(=O)=O)cc1`, the CPE inhibition was inconclusive: 24.3%.
With `Cc1noc(C)c1NC(=O)Nc1ccc2c(c1)CC(=O)N([C@H](C)CO)C[C@H](C)[C@@H](CN(C)C(=O)Nc1ccccc1)O2` the CPE inhibition was inactive: 6.53%.
With `CC1CCN(C(=O)c2cccc(S(=O)(=O)N3CCN(c4ccccc4)CC3)c2)CC1` the CPE inhibition was inactive: 9.3%.
For `COc1ccccc1C(=O)NCC(=O)OCC(=O)Nc1cccc(S(=O)(=O)N(C)C)c1`, the CPE inhibition was inactive: 2.88%.
In the case of `COc1cccc(CSc2nnc(C(F)(F)F)n2Cc2ccc(F)cc2)c1`, the CPE inhibition is reported as inactive: 9.6%.
With `Cc1nc(C(F)(F)F)ccc1C(=O)N1CCC1(C)C(=O)NS(=O)(=O)c1ccc(C#N)cc1` (stereo not drawn) the CPE inhibition was active: 30.8%.
In the case of `CC(C)C(=O)N1CCN(c2ccccc2NC(=O)c2ccc(Br)o2)CC1`, the CPE inhibition is reported as inconclusive: 22.9%.
For `Cc1c(-c2ccccc2)n(O)c(-c2ccc(N(C)C)cc2)[n+]1[O-]`, the CPE inhibition was inconclusive: 41.9%.
For `CC1=C(C(=O)N(C)C)CC(CC(=O)NCCN2CCOCC2)C(=O)N1CCCN1CCCC1=O` (stereo not drawn), the CPE inhibition was inactive: 5.14%.
For `O=S(=O)(c1cccs1)N1CCCCN2[C@H](CO)[C@@H](c3ccc(Br)cc3)[C@H]2C1`, the CPE inhibition was inconclusive: 21%.
In the case of `C/C=C/c1cccc(-c2nc(C(=O)NC3CCC3)cc3c2[C@H](CCO)N(S(=O)C(C)(C)C)C3)c1` (stereo partly drawn), the CPE inhibition is reported as inconclusive: 40.3%.
In the case of `COc1ccccc1C(NC(=O)C1CCN(CCOc2ccc(Cl)cc2)CC1)c1ccccn1` (stereo not drawn), the CPE inhibition is reported as inconclusive: 44%.
For `CC1(C)C[C@@H](O)[C@]2(C)CC[C@]3(C)C(=CCC4[C@@]5(C)CC[C@H](O)[C@](C)(CO)C5CC[C@]43C)[C@@H]2C1` (stereo partly drawn), the CPE inhibition was inconclusive: 28%.
With `CN(Cc1ccccc1)C(=O)c1ccc(NC(=O)Cc2cccc(NC(=O)C3CCCN(C(=O)C4CCC4)C3)c2)cc1` (stereo not drawn) the CPE inhibition was inconclusive: 42.3%.
With `CCOc1ccc(NN=C(C(=O)OC)C(=O)OC)c([N+](=O)[O-])c1` the CPE inhibition was active: 37%.
For `C[C@H](CO)N1C[C@H](C)[C@H](CN(C)C)Oc2ncc(C#CC(C)(C)O)cc2C1=O`, the CPE inhibition was inconclusive: 33.1%.
For `CCCCNC(=O)C1C(c2ccc(C(F)(F)F)cc2)=Nc2ccccc2N1C(=O)c1cccc2ccccc12` (stereo not drawn), the CPE inhibition was active: 28.5%.
With `C[C@H](CO)N1C[C@H](C)[C@H](CN(C)Cc2ccc(-c3ccccc3)cc2)Oc2ccc(NC(=O)Nc3ccc4c(c3)OCO4)cc2C1=O` the CPE inhibition was active: 24.3%.
For `Cc1cc(C)cc(-n2ncc3c2CCCC3NC(=O)CN2CCCCC2=O)c1` (stereo not drawn), the CPE inhibition was inconclusive: 32.9%.
In the case of `CC(C)(C)C1CCC(=NNc2nc3ccccc3[nH]2)CC1` (stereo not drawn), the CPE inhibition is reported as inconclusive: 33.6%.
With `Cc1cc(NC(=O)c2n[nH]c(=O)c3ccccc23)ccc1Br` the CPE inhibition was inconclusive: 21.4%.
For `C[C@@H]1CN([C@H](C)CO)C(=O)Cc2cc(NC(=O)Cc3ccccc3)ccc2O[C@@H]1CN(C)C(=O)Nc1ccc2c(c1)OCO2`, the CPE inhibition was active: 27.8%.
In the case of `C[C@H]1CN([C@@H](C)CO)C(=O)c2cc(-c3ccccc3)cnc2O[C@@H]1CN(C)C(=O)C1CCCCC1`, the CPE inhibition is reported as active: 47%.
With `CCc1nc2ccc(C(=O)Nc3ccc(C(N)=O)cc3)cn2c1N(CCC(C)C)CCN(C)C` the CPE inhibition was inconclusive: 29.4%.
